Assay results from PubChem BioAssay AID256 (DTP/NCI, 2004).
The list shows only some results of the screen, not a fair sample: it gathers tests that were run many times, whatever their T/C, doses with no T/C, and many T/C values between a quarter and a half above the control. Further doses and runs are listed elsewhere. T/C is the treated group as % of the vehicle group. Some entries give survivors of the animals treated and no T/C: the source holds a T/C of zero for them, seemingly a mark for toxic or unscored doses. Some survivor counts are full or nearly so, which does not show that the dose was tolerated: the source hardly ever lists a survival T/C far under the control, and the zero likely stands for such cases as well. Counts of survivors are from the toxicity check (mostly the fifth day) where no day follows; animals may have died later. Schedule codes are those of the source, taken here to give the interval after Q, in days (D) or hours (H), and the number of doses after X. Some schedule codes hold Z or #, which are not explained here. For survival time, this PubChem deposit counts one and a half times the control or more as active, and values a quarter to a half above the control carry no call in these data; other NCI protocols may use other cut-offs.

Tested on: CD2F1 mice, L1210 leukemia ip, survival T/C
Assay: NCI In Vivo Anticancer Drug Screen. Data for tumor model L1210 Leukemia (intraperitoneal) in CD2F1 (CDF1) mice
Settings: higher T/C = longer survival
Method in brief: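 Tumor-bearing mice (transplanted tumor) were split into treated and vehicle control groups, and the measured endpoint of each treated group was divided by that of its vehicle controls.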

[1] = T/C endpoint: mean survival time, dose: 200.0 mg/kg/injection, schedule: Q01DX009 (ip), vehicle: saline with Tween-80
[2] = T/C endpoint: mean survival time, dose: 400.0 mg/kg/injection, schedule: Q01DX009 (ip), vehicle: saline with Tween-80
[3] = T/C endpoint: mean survival time, dose: 400.0 mg/kg/injection, schedule: Q01DX001 (ip), vehicle: saline with Tween-80
[4] = T/C endpoint: mean survival time, dose: 200.0 mg/kg/injection, schedule: Q04DX003 (ip), vehicle: saline with Tween-80
[5] = T/C endpoint: mean survival time, dose: 400.0 mg/kg/injection, schedule: Q04DX003 (ip), vehicle: saline with Tween-80
[6] = T/C endpoint: mean survival time, dose: 400.0 mg/kg/injection, schedule: Q01DX001 (ip), vehicle: saline

Which survivor count [1] does the source give for `C[N+]1(C)CCC(=O)CC1` here?
The survivor count was 1 of 6.

And the survivor count [2]?
The survivor count was 0 of 6.

For `C1CCC2NN=NC2C1` (configuration not stated), which survivor count [3] is on record?
Its survivor count is 2 of 6.

How did the survivor count (T/C endpoint: mean survival time, dose: 400.0 mg/kg/injection, schedule: Q01DX009 (ip), vehicle: water) turn out when `CCCCC#CCOCC(O)CCl` (configuration not stated) was run?
The survivor count was 0 of 6.

With `NNC(=O)c1cccc([N+](=O)[O-])c1` as the molecule, how does the survivor count (T/C endpoint: mean survival time, dose: 150.0 mg/kg/injection, schedule: Q01DX001 (ip), vehicle: saline) read?
Its survivor count is 3 of 6.

What about the survivor count (T/C endpoint: mean survival time, dose: 300.0 mg/kg/injection, schedule: Q01DX001 (ip), vehicle: saline) of the same molecule?
The survivor count was 0 of 6.

With `CN(C)CCCC#N` as the molecule, how does the survivor count [1] read?
The survivor count was 2 of 6.

With `O=C1c2ccccc2C(=O)c2c1cn1c2Cc2ccccc2C1` as the molecule, how does the T/C (T/C endpoint: median survival time, dose: 25.0 mg/kg/injection, schedule: Q01DX005 (ip), vehicle: Klucel (hydroxypropylcellulose) (HPC)) read?
Its T/C is 130 % of control.

And the survivor count (T/C endpoint: median survival time, dose: 150.0 mg/kg/injection, schedule: Q01DX005 (ip), vehicle: other)?
Its survivor count is 1 of 6.

`O=C1NC(=O)C(c2ccccc2)(C2CCC2)N1` (configuration not stated) was tested. Which survivor count [4] did it give?
The survivor count was 6 of 6.

For `CCN=C(NCC)SCCSC(=NCC)NCC`, which survivor count (T/C endpoint: mean survival time, dose: 400.0 mg/kg/injection, schedule: Q04DX002 (ip), vehicle: saline with Tween-80) is on record?
Its survivor count is 0 of 3.

Which survivor count (T/C endpoint: mean survival time, dose: 75.0 mg/kg/injection, schedule: Q01DX001 (ip), vehicle: carboxymethylcellulose (CMC)) does the source give for `N#CS.[Tl]` here?
The survivor count was 0 of 6.

And the survivor count (T/C endpoint: mean survival time, dose: 150.0 mg/kg/injection, schedule: Q01DX001 (ip), vehicle: carboxymethylcellulose (CMC))?
Its survivor count is 0 of 6.

What about the survivor count (T/C endpoint: mean survival time, dose: 300.0 mg/kg/injection, schedule: Q01DX001 (ip), vehicle: carboxymethylcellulose (CMC)) of the same molecule?
The survivor count was 0 of 6.

How did the survivor count (T/C endpoint: mean survival time, dose: 10.0 mg/kg/injection, schedule: Q01DX Z (ip), vehicle: saline) turn out when `COC(=O)/C=C/N(CCF)CCF` was run?
The survivor count was 0 of 6.

With `CCOC(=O)CC(=O)c1c(C)cc(C)c(Br)c1C` as the molecule, how does the survivor count (T/C endpoint: mean survival time, dose: 100.0 mg/kg/injection, schedule: Q04DX003 (ip), vehicle: saline with Tween-80) read?
Its survivor count is 6 of 6.

`CC1(C)N=C(N)N=C(N)N1c1cccc(C(C#N)CCCc2ccccc2)c1` (configuration not stated) was tested. Which survivor count (T/C endpoint: mean survival time, dose: 50.0 mg/kg/injection, schedule: Q01DX009 (ip), vehicle: Klucel (hydroxypropylcellulose) (HPC)) did it give?
The survivor count was 1 of 3.

And the survivor count (T/C endpoint: mean survival time, dose: 100.0 mg/kg/injection, schedule: Q01DX009 (ip), vehicle: Klucel (hydroxypropylcellulose) (HPC))?
Its survivor count is 0 of 3.

What about the survivor count (T/C endpoint: mean survival time, dose: 200.0 mg/kg/injection, schedule: Q01DX009 (ip), vehicle: Klucel (hydroxypropylcellulose) (HPC)) of the same molecule?
The survivor count was 0 of 3.

`CN(Cc1ccccc1)N=Nc1ccccc1` was tested. Which survivor count (T/C endpoint: mean survival time, dose: 300.0 mg/kg/injection, schedule: Q01DX009 (ip), vehicle: Klucel (hydroxypropylcellulose) (HPC)) did it give?
Its survivor count is 2 of 6.

Which survivor count [2] does the source give for `Cc1nc(N)sc1S(=O)(=O)F` here?
Its survivor count is 1 of 6.

What does the source list for `COc1ccc(C(=O)/C=C/c2cccc3ccccc23)cc1`?
survivor count (T/C endpoint: mean survival time, dose: 100.0 mg/kg/injection, schedule: Q01DX009 (ip), vehicle: saline with Tween-80): 3 of 3; survivor count [1]: 3 of 3; survivor count [2]: 2 of 3

How did the survivor count (T/C endpoint: mean survival time, dose: 125.0 mg/kg/injection, schedule: Q01DX005 (ip), vehicle: other) turn out when `Cn1c(=O)[nH]c2c(nc(-c3ccc4c(c3)OCO4)n2C)c1=O` was run?
The survivor count was 3 of 3.

`NSc1ccc([N+](=O)[O-])cc1` was tested. Which survivor count (T/C endpoint: mean survival time, dose: 100.0 mg/kg/injection, schedule: Q01DX001 (ip), vehicle: other) did it give?
Its survivor count is 1 of 6.

How did the survivor count [5] turn out when `CC1=C(C)CC(C(Cl)(Cl)Cl)C([N+](=O)[O-])C1` (configuration not stated) was run?
Its survivor count is 5 of 6.

How did the survivor count [6] turn out when `CCCCOC(=O)CCl` was run?
The survivor count was 1 of 4.

With `CCCN1CCN(c2ccccc2)CC1` as the molecule, how does the survivor count [4] read?
Its survivor count is 2 of 6.

And the survivor count [5]?
Its survivor count is 0 of 6.

For `CC(=O)SCCCCl`, which survivor count (T/C endpoint: mean survival time, dose: 400.0 mg/kg/injection, schedule: Q01DX009 (ip), vehicle: saline) is on record?
The survivor count was 3 of 6.

`C=CCNc1ncnc2c1ncn2C1OC(CO)C(O)C1O` (configuration not stated) was tested. Which survivor count (T/C endpoint: mean survival time, dose: 300.0 mg/kg/injection, schedule: Q01DX001 (ip), vehicle: other) did it give?
Its survivor count is 0 of 6.

For `[Ni+2].[S-]Cc1ccccc1.[S-]Cc1ccccc1`, which survivor count [6] is on record?
Its survivor count is 2 of 6.

`CC(C)CCCC(C)C1CCC2C3CC(CO)C4CC(O)CCC4(C)C3CCC12C` (configuration not stated) was tested. Which survivor count [5] did it give?
Its survivor count is 0 of 6.

For `C1CCC2(CC1)NCCO2`, which survivor count (T/C endpoint: mean survival time, dose: 400.0 mg/kg/injection, schedule: Q01DX009 (ip), vehicle: saline sonified) is on record?
Its survivor count is 4 of 6.

Which survivor count [3] does the source give for `COc1cc([N+](=O)[O-])ccc1NC(=O)NCCc1ccccc1` here?
Its survivor count is 3 of 3.

How did the survivor count [1] turn out when `COc1cc(OC)c(NC(=O)Oc2c(Cl)cccc2Cl)cc1Cl` was run?
Its survivor count is 2 of 3.
